Library screen at single concentrations

Protein sequences, listed by entry. Tags and fused reporters are not part of them. Residues count along the entry.
UniProt Q4DA54, 1-478: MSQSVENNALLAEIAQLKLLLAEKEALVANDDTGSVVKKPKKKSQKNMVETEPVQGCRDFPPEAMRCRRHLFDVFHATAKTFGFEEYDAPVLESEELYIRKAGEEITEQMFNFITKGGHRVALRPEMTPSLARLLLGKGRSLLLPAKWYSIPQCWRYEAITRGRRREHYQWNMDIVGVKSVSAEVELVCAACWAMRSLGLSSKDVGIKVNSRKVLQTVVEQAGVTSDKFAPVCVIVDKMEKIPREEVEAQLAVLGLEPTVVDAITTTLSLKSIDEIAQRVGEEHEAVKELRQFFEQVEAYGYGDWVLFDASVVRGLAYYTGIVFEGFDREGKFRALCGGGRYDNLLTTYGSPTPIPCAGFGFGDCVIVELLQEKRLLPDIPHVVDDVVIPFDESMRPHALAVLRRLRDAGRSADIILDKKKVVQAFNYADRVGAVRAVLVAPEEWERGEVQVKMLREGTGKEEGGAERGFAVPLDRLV
UniProt Q8IDJ8, 1-583: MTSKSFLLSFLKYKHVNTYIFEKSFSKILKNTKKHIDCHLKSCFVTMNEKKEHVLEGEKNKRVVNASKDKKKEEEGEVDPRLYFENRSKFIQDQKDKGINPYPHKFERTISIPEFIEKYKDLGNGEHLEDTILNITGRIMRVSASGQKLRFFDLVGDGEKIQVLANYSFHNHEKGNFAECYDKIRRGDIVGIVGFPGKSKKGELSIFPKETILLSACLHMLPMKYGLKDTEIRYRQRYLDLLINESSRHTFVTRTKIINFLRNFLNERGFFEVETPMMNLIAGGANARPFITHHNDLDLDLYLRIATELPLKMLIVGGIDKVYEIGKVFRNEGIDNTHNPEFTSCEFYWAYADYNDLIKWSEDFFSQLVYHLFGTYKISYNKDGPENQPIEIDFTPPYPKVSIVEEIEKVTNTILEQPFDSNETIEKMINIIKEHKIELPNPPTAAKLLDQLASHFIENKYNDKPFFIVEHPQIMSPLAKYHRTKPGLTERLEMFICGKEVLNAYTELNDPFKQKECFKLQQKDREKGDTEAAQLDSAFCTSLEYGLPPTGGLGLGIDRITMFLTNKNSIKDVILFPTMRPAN

Data taken from ChEMBL document CHEMBL3988442, “University of Dundee, Small-Polar-MMV Screening Library” (2021).

TcHisRS: 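Enzyme assay of histidyl-tRNA synthetase; the read-out is not stated. Target: Histidine-tRNA ligase, Trypanosoma cruzi CL Brener (UniProt Q4DA54). Concentration: 30 µM. Higher reads as stronger inhibition (inferred: compounds with an IC50 in retests scored well above the rest). Size under these conditions: about 69,000 compounds, about 31 of them at 50% or above in at least one test.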
PfKRS1: 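Lysine-tRNA ligase, Plasmodium falciparum 3D7 (UniProt Q8IDJ8). Enzyme assay of the cytosolic lysyl-tRNA synthetase in 384-well plates, read by luminescence. Concentration: 30 µM. Higher reads as stronger inhibition, judged from the few compounds that gave an IC50. Of about 69,000 compounds tested this way, about 49 (0.071%) reached 50% or more in at least one test.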

Results are given as percent effect. The record does not define 0% and 100%; most values in the screen are far below 50% and negative numbers occur (in some assays of this library far below -100). Compounds were drawn at random from those tested, without regard to their results.

SMILES	TcHisRS	PfKRS1
CCc1sc(C(=O)Nc2cnn(CC(=O)NC3CC3)c2)cc1C	5.051	6.896
CC(=O)NCC(=O)N1CCCC1c1ccc(CN2CCOCC2)cn1 (stereo not shown)	1.149	-0.3274
O=C(Nc1ccc(F)cc1)C1CNCCN1C(=O)CSc1ccncc1 (stereo not shown)	8.434	0.4363
CCCS(=O)(=O)NC(C)C(=O)NCc1ccc(N2CCCC2)nc1 (stereo not shown)	3.759	5.756
CN(C)c1nccc(N2CCO[C@H]3CN(CC4CCOCC4)C[C@H]32)n1	0.8264	5.362
COC(=O)N1CCC(Nc2ccc(C#N)c(Cl)c2)C1 (stereo not shown)	3.982	3.593
Cc1ccc(N2CCCN(C(=O)CC3C=CCC3)CC2)nn1 (stereo not shown)	7.558	2.553
Cc1ccc(S(=O)(=O)N2CCCCC(N3CCN(C)CC3)C2)cc1F (stereo not shown)	-0.9852	5.048
CCn1cnnc1C1CCN(C(=O)c2ccc3cc[nH]c3c2)CC1	6.522	-1.753
CC(C)c1nc(C2CCCN2c2cnc3ccccc3n2)no1 (stereo not shown)	11.11	7.419
Cc1ccccc1C1(C(=O)NCCN(C(C)C)C(C)C)CCOCC1	4.399	1.104
CSc1[nH]c(=O)c(C(=O)N2CCCC2c2cccs2)cc1C#N (stereo not shown)	11.88	3.407
CO[C@@H]1CCN(C2CCOCC2)C[C@@H]1Cc1ccccc1	3.883	2.822
Cc1cc2cc(CNC(=O)c3cnn4c3OCCC4)ccc2[nH]1	6.186	1.256
O=C1COC2(COCCN(Cc3cccnc3)C2)CN1c1ccoc1 (stereo not shown)	3.261	3.852
CN(Cc1ccccc1-n1cccn1)C[C@@H]1CCCN2CCCC[C@H]12	7.879	3.469
O=S1(=O)C[C@@H]2[C@H](C1)N(Cc1ncc[nH]1)CCN2Cc1cccnc1	1.667	0.977
Cc1ccc2c(c1)nc1n2[C@@H](CNC(=O)c2cccnc2)COC1	6.522	-0.2774
COc1ncccc1C(=O)N1CC[C@H]2C[C@H](c3ccncn3)O[C@@H]2C1	1.22	2.192
Cc1[nH]c2nc(CNc3ccccc3Cl)nn2c(=O)c1C	9.901	5.309
Cc1n[nH]cc1CNCC(c1ccsc1)N(C)C (stereo not shown)	1.571	2.284
O=C(O)C1(Cc2ccc(F)cc2)CCCN(Cc2ccncc2)C1 (stereo not shown)	7.229	5.987
CS(=O)(=O)c1ccc(CN2CCCCC2c2cccc(F)c2)cc1 (stereo not shown)	9.877	-0.9897
CC(=O)N1CCN(c2cc(CCN)nc(C3CC3)n2)CC1	11.7	3.351
COCCN(CCOC)C(=O)c1ccc(Cn2nc(C)cc2C)cc1	1.463	0.03463
CCc1nc(C2CCCN(C(=O)c3ccc(OC(C)C)nc3)C2)no1 (stereo not shown)	3.396	-3.735
COc1cccc(-c2ccc(CNC(=O)c3ccc(=O)n(C)c3)cc2)c1	1.266	4.894
CC(C)c1nccn1C1CCCN(C(=O)c2cn3cccnc3n2)C1 (stereo not shown)	-2.579	-0.5923
Cn1cc2ncn([C@H]3CCN(Cc4ccccc4)C3)c(=O)c2n1	6.154	3.447
O=C(Cc1cccs1)N1CCOC(c2cccc(O)c2)C1 (stereo not shown)	4.459	4.677
O=C(NCc1cc(O)ncn1)C1COc2ccccc2C1 (stereo not shown)	4.132	-1.081
Cc1ccc(CNC2(Cc3cc(-c4ccccc4)on3)COC2)o1	5.435	4.161
COCC(NC(=O)c1ccoc1C)c1cccc(C(F)(F)F)c1 (stereo not shown)	-0.4484	4.978
Cc1ccsc1CN1CCC(c2cc(C(C)C)n[nH]2)CC1	14.43	4.504
Cc1cc(-n2cccn2)ccc1CN1C[C@@H](CN(C)C)[C@@H](CO)C1	15.48	2.341
COCCC(=O)NCc1cccnc1-n1cnc2ccccc21	0	7.125
COc1ccccc1CCN[C@@H]1c2ccccc2C2(CCNCC2)[C@H]1O	3.571	3.639
CN(Cc1nnc(-c2cccs2)o1)Cc1nc2c(s1)CCCC2	3.704	5.723
Cc1cc(N(C)C)nc(C2CCCNC2)n1 (stereo not shown)	3.383	0.8238
OC1(CNCc2csc(-c3ncccn3)n2)CCCNC1 (stereo not shown)	0.431	2.343
COc1ccc2c(c1)CC(NCc1cccc(OCC(N)=O)c1)CC2 (stereo not shown)	2.299	3.867
CCc1ccc(CNC(=O)CCNc2ncccn2)s1	0	10.04
CC(c1nc(C2CC2)no1)N1CCN(CCCN2CCCC2=O)CC1 (stereo not shown)	3.488	7.497
CCN(C)c1ncnc2c1CCN(Cc1ccncc1)CC2	4	-1.048
CC(C)N(Cc1cccnc1)C(=O)CNc1ccc(C#N)cc1	7.937	6.043
CC(=O)N1CCN(C(=O)CNc2c(C)cccc2OC(F)F)CC1	4.444	1.718
Cc1[nH]c(-c2ccccc2)nc1C(=O)N1CC[C@H](CO)[C@@H](O)C1	-4.545	-3.322
O=C(CCn1cncn1)NCC(c1ccco1)N1CCCCC1 (stereo not shown)	2.624	-1.138
Cc1cccc(C(=O)N2CCC3(CCN(c4cnn(C)c4)C3=O)C2)n1 (stereo not shown)	-24.56	1.759
O=C(NCCc1cccs1)N1CCCC2(CCC(=O)N(C3CC3)C2)C1 (stereo not shown)	9.836	4.514
Cc1cccc(CN2C[C@H](OCc3ccccn3)[C@H]3COC[C@H]32)n1	9.524	2.105
Cc1c(NC(=O)N(C)CCn2cnnc2)cccc1OC1CCCC1	12.71	-0.9169
CN(C)CCN1CCOCC2(C1)CN(Cc1ccsc1)CCO2 (stereo not shown)	8.197	2.109
CCS(=O)(=O)CC(=O)N1CCCC1c1noc(C2CC2)n1 (stereo not shown)	10.34	-1.347
O=C(Nc1nccs1)N1CCCC(N2CCNC2=O)C1 (stereo not shown)	-1.653	1.078
CCNC(c1ccc(Br)cc1)c1cccnc1 (stereo not shown)	2.006	-0.5648
O=C(NCc1cccnc1)N1CCC2(CC(=O)N(c3ccsc3)C2)C1 (stereo not shown)	4.327	-1.009
O=C(c1ccccc1-n1cnnn1)N1CCC2(CC1)OCCO2	7.453	1.393
Cn1cnc2c1CCN(Cc1nc(-c3ccco3)no1)C2	7.071	4.157
O=C(C1=CCCC1)N1C[C@H]2CCC[C@@]2(COCc2ccncc2)C1	9.677	-1.402
CCc1nnc(Nc2cc(C)nc(C3CCN(c4ccncn4)C3)n2)s1 (stereo not shown)	-3.383	-0.1678
Oc1cccc(CNCC2CCCO2)c1 (stereo not shown)	6.952	-6.568
CC1CCN(S(=O)(=O)c2cccn(CC(=O)N3CCOCC3)c2=O)CC1	2.732	-4.956
O[C@H]1CC[C@@H](Cc2cc(-c3ccc(F)cc3)on2)O[C@@H]1CNCC1CC1	0.4975	0.6934
CCCN1CCC(Cc2noc(-c3[nH]cnc3C)n2)CC1	6.061	4.646
COCc1cc(CC2(NC3CCCCC3)COC2)no1	-6.468	2.056
CC1CN(Cc2cccc(C#N)c2)CCN1c1ccc2nncn2n1 (stereo not shown)	16.84	1.172
CN1CCN(Cc2ccccc2Oc2ccc(C(N)=O)cn2)CC1	8.889	0.2749
O=C(NC1CCCN(Cc2c(F)cccc2F)C1)c1cnccn1 (stereo not shown)	-6.077	1.006
Cc1ccc(S(=O)(=O)NCCCN2CCC(O)CC2)cc1Cl	5.357	3.904
CN(CCc1ccncc1)Cc1c(C2CCCC2)[nH]c2ncccc12	3.955	0.8311
COCC(=O)N1CCCCC1c1ccnc(Nc2ncc(C)s2)n1 (stereo not shown)	0.7491	0.6617
Cc1cc(N2CCC(N(C)C(=O)Nc3ccccc3)CC2)nc(C)n1	1.653	-0.9621

The first 9 entries again:

SMILES	TcHisRS	PfKRS1
CCc1sc(C(=O)Nc2cnn(CC(=O)NC3CC3)c2)cc1C	5.051	6.896
CC(=O)NCC(=O)N1CCCC1c1ccc(CN2CCOCC2)cn1 (stereo not shown)	1.149	-0.3274
O=C(Nc1ccc(F)cc1)C1CNCCN1C(=O)CSc1ccncc1 (stereo not shown)	8.434	0.4363
CCCS(=O)(=O)NC(C)C(=O)NCc1ccc(N2CCCC2)nc1 (stereo not shown)	3.759	5.756
CN(C)c1nccc(N2CCO[C@H]3CN(CC4CCOCC4)C[C@H]32)n1	0.8264	5.362
COC(=O)N1CCC(Nc2ccc(C#N)c(Cl)c2)C1 (stereo not shown)	3.982	3.593
Cc1ccc(N2CCCN(C(=O)CC3C=CCC3)CC2)nn1 (stereo not shown)	7.558	2.553
Cc1ccc(S(=O)(=O)N2CCCCC(N3CCN(C)CC3)C2)cc1F (stereo not shown)	-0.9852	5.048
CCn1cnnc1C1CCN(C(=O)c2ccc3cc[nH]c3c2)CC1	6.522	-1.753